For 1 molecule, binding results are on record in paper PMC13155533, “The secreted protein PCYOX1L controls the surface expression of acid-sensing ion channel 1a” (Science Advances, 2025).

The experiment deals with rat PCYOX1L tagged with a hemagglutinin (HA) epitope (rat). Nature of the experiment: co-IP; proteins overexpressed in Asic1-/- HEK cells; lysis in 1% Triton X-100 in PBS; PCYOX1L-HA precipitated, protein G-Sepharose, 4°C; ASIC1a found by Western blot; rat IgG or beads only as negative controls. (In general: Immunoblotting shows a protein as a band on a membrane.)

These are yes or no findings as the source states them, for the method shown. In cells and extracts the contact can be indirect. A result given as binding can be weak or reduced; the word gives no strength. Where a sequence is shown, tags or fusion partners need not be part of it.

B1: rat ASIC1a-GFP (natural protein, UniProt P55926-1 1-526, looked up)
chain: MELKTEEEEVGGVQPVSIQAFASSSTLHGLAHIFSYERLSLKRALWALCFLGSLAVLLCVCTERVQYYFCYHHVTKLDEVAASQLTFPAVTLCNLNEFRFSQVSKNDLYHAGELLALLNNRYEIPDTQMADEKQLEILQDKANFRSFKPKPFNMREFYDRAGHDIRDMLLSCHFRGEACSAEDFKVVFTRYGKCYTFNSGQDGRPRLKTMKGGTGNGLEIMLDIQQDEYLPVWGETDETSFEAGIKVQIHSQDEPPFIDQLGFGVAPGFQTFVSCQEQRLIYLPSPWGTCNAVTMDSDFFDSYSITACRIDCETRYLVENCNCRMVHMPGDAPYCTPEQYKECADPALDFLVEKDQEYCVCEMPCNLTRYGKELSMVKIPSKASAKYLAKKFNKSEQYIGENILVLDIFFEVLNYETIEQKKAYEIAGLLGDIGGQMGLFIGASILTVLELFDYAYEVIKHRLCRRGKCQKEAKRSSADKGVALSLDDVKRHNPCESLRGHPAGMTYAANILPHHPARGTFEDFTC
notes: ASIC1a, rat, in pEGFP-N1; the methods say that rat ASIC1a was used for coexpression with PCYOX1L in HEK293 cells; The vector pEGFP-N1 would put GFP at the C-terminus; source: HEK cells, transfected, in digitonin lysate
B1: the binding result is reported as “binds”.
